Experimental data published in patent publication US12441768B2, “Compositions and methods for treating endometriosis” (EndoMet Biosciences, Inc., priority 2018, dated 2025).
Part of at least one peptide drawing is inferred or uncertain, most often the ends. Where a SMILES comes first, the peptide text is derived from it.

Legend:
β-catenin = biological target: T1, β-catenin (Homo sapiens, UniProt P35222); assay: KD50 measurement using competitive fluorescence polarization (FP) with labelled TCF4; type: binding
T1 sequence (P35222 1-781): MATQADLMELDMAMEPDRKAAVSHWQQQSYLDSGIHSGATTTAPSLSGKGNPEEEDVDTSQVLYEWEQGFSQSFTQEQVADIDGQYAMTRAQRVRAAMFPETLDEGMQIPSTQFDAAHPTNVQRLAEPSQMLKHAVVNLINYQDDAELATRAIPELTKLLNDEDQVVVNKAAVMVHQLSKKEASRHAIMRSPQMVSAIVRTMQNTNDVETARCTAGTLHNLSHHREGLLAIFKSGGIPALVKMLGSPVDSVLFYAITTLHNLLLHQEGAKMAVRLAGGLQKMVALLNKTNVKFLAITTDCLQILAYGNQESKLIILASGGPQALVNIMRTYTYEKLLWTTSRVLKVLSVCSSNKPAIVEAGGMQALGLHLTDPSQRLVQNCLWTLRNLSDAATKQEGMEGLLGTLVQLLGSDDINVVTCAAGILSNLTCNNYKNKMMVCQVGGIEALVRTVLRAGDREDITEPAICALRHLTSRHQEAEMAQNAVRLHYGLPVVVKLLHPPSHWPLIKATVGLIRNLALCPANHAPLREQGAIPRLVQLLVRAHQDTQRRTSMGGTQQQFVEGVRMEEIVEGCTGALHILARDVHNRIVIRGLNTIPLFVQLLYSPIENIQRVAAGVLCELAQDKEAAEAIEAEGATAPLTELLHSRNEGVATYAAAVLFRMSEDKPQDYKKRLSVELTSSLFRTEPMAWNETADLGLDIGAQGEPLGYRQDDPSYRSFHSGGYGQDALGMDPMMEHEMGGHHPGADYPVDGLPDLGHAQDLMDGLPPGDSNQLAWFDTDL
Text: Fluorescence polarization (FP) is another method used to analyze protein-ligand interactions. This methodology measures the change in fluorescence light emitted by a labelled compound free vs. conjugated to another compound in solution. Upon binding of the fluorescent molecule to a complex, polarization increases because of limited rotation of the fluorescent tracer. Competitive FP is often utilized in drug screens as it is formatted for high throughput screens in a plate format. This immunoassay is performed by introducing a non-conjugated drug to compete for binding to the labelled competitor-ligand complex, leading to a reduction in polarization. TCF4 protein is utilized for the competitive assay as (1) this protein influences the full activation of the Wnt pathway and (2) shares homology with the β-catenin inhibitors. Exemplary methodology is described in Example 13. Data were analyzed and plotted in Microsoft Excel (Microsoft, Redmond, WA).
5 nM of labelled TCF4 protein was added to solution of 100 nM of β-catenin and incubated at room temperature in 96-well plates (Greiner 96 Flat transparent plates, Millipore Sigma, Carlsbad CA). Varying concentrations of β-catenin inhibitor candidate (SEQ ID NO: 404) were then added in a series of serial dilutions from 10 nM to 30 uM of inhibitor in different wells of the plate. The fluorescence polarization was read by Infinite M1000 (Tecan, Baldwin Park CA) at excitation wavelength of 470 nm and measured at emission wavelength of 520 nm. […] The experiments were performed three times and data were analyzed and plotted in Microsoft Excel (Microsoft, Redmond, WA).

[1] = biological target: Wnt-responsive promoter (TCF/LEF); assay: Wnt-dependent luciferase reporter assay; type: cell-based, murine
Description: The luciferase reporter assay is commonly used as a tool to study gene expression at the transcriptional level. Peptides from libraries described herein were characterized for ability to suppress transcription in cells with luciferase expression controlled by a Wnt-responsive promoter. Peptides were added to cells transfected with luciferase gene downstream of a Wnt-responsive promoter. Cells were stimulated with Wnt3a protein and incubated with peptides from libraries described herein. Luminescence was recorded to determine the peptides with the highest β-catenin-inhibiting activity. EC50 values were calculated based on the inhibition of luminescence and expressed as concentration (uM) in Table 5.
Peptides were assessed for their ability to inhibit Wnt signaling. Murine 3T3 fibroblasts that express luciferase under a Wnt-responsive promoter (TCF/LEF) (Enzo Life Sciences, Farmingdale, NY) were stimulated with Wnt3a in the presence of increasing concentrations of peptide inhibitor (Hit 1: SEQ ID NO:217, Hit 2: SEQ ID NO:224, Hit 3: SEQ ID NO:228, Hit 4: SEQ ID NO:227, Hit 5: SEQ ID NO:220, Hit 6: SEQ ID NO:168. Hit 7: SEQ ID NO:226) or with vehicle control (FIG. 2A).

SMILES	β-Cat FP Hill slope (β-catenin)	EC50 [1]
CCCCCCCCCCCC(=O)N[C@@H](Cc1c[nH]c2ccccc12)C(=O)N(C)[C@@H](C)C(=O)N[C@@H](CCC(N)=O)C(=O)N[C@H]1CCCCNC(=O)C[C@@H](C(=O)N[C@@H](Cc2c[nH]cn2)C(=O)N[C@H](C(=O)N[C@@H](CCC(N)=O)C(=O)N[C@@H](C)C(=O)N[C@H](C(=O)N[C@@H](Cc2c[nH]c3ccccc23)C(N)=O)C(C)C)C2CCCCC2)NC(=O)[C@H](CC(N)=O)NC(=O)[C@H](CC(C)C)NC(=O)[C@H]([C@@H](C)CC)NC1=O [compound 459] (HELM PEPTIDE1{[CCCCCCCCCCCC(=O)[*:2]].W.[meA].Q.K.I.L.N.D.H.[O=C([C@@H](N[*:1])C1CCCCC1)[*:2]].Q.A.V.W.[am]}$PEPTIDE1,PEPTIDE1,5:R3-9:R3$$$V2.0)	1.4	< 7.5 µM
CCCCCCCCCCCC(=O)N[C@@H](Cc1c[nH]c2ccccc12)C(=O)N1CCC[C@H]1C(=O)N[C@@H](CCC(N)=O)C(=O)N[C@@H](CO)C(=O)N[C@H](C(=O)N[C@@H](CC(C)C)C(=O)N[C@@H](CC(=O)O)C(=O)N[C@H]1CCC(=O)NCCCC[C@@H](C(=O)N[C@H](C(=O)N[C@@H](Cc2c[nH]c3ccccc23)C(=O)NCC(N)=O)C(C)C)NC(=O)[C@H](CCC(N)=O)NC(=O)[C@H](C2CCCCC2)NC(=O)[C@H](Cc2c[nH]cn2)NC1=O)[C@@H](C)CC [compound 473] (HELM PEPTIDE1{[CCCCCCCCCCCC(=O)[*:2]].W.P.Q.S.I.L.D.E.H.[O=C([C@@H](N[*:1])C1CCCCC1)[*:2]].Q.K.V.W.G.[am]}$PEPTIDE1,PEPTIDE1,9:R3-13:R3$$$V2.0)	1.16	< 7.5 µM
CCCCCCCCCCCC(=O)N[C@@H](Cc1c[nH]c2ccccc12)C(=O)N(C)[C@@H](C)C(=O)N[C@@H](CCC(N)=O)C(=O)N[C@@H](CO)C(=O)N[C@H](C(=O)N[C@@H](CC(C)C)C(=O)N[C@@H](CC(=O)O)C(=O)N[C@H]1CCC(=O)NCCCC[C@@H](C(=O)N[C@H](C(=O)N[C@@H](Cc2c[nH]c3ccccc23)C(=O)NCC(N)=O)C(C)C)NC(=O)[C@H](CCC(N)=O)NC(=O)[C@H](C(C)C)NC(=O)[C@H](Cc2c[nH]cn2)NC1=O)[C@@H](C)CC [compound 439] (HELM PEPTIDE1{[CCCCCCCCCCCC(=O)[*:2]].W.[meA].Q.S.I.L.D.E.H.V.Q.K.V.W.G.[am]}$PEPTIDE1,PEPTIDE1,9:R3-13:R3$$$V2.0)	0.92	7.5 to 15 µM
CCCCCCCCCCCC(=O)N[C@@H](Cc1c[nH]c2ccccc12)C(=O)N(C)[C@@H](C)C(=O)N[C@H]1CCC(=O)NCCCC[C@@H](C(=O)N[C@@H](CCC(=O)O)C(=O)N[C@@H](Cc2c[nH]cn2)C(=O)N[C@H](C(=O)N[C@@H](CCC(N)=O)C(=O)N[C@@H](CCCNC(=N)N)C(=O)N[C@H](C(=O)N[C@@H](Cc2c[nH]c3ccccc23)C(=O)NCC(N)=O)C(C)C)C(C)C)NC(=O)[C@H](CC(C)C)NC(=O)[C@H]([C@@H](C)CC)NC(=O)[C@H](CO)NC1=O [compound 451] (HELM PEPTIDE1{[CCCCCCCCCCCC(=O)[*:2]].W.[meA].E.S.I.L.K.E.H.V.Q.R.V.W.G.[am]}$PEPTIDE1,PEPTIDE1,4:R3-8:R3$$$V2.0)	0.7	< 7.5 µM
CC[C@H](C)[C@H](NC(=O)[C@H](CC(C)C)NC(=O)[C@@H](NC(=O)[C@H](Cc1c[nH]c2ccccc12)NC(=O)[C@H](CCSC)NC(C)=O)[C@@H](C)CC)C(=O)N[C@@H](CO)C(=O)N[C@@H](Cc1ccccc1)C(=O)N[C@@H](Cc1c[nH]c2ccccc12)C(=O)N(C)CC(=O)O [compound 221] (HELM PEPTIDE1{[ac].M.W.I.L.I.S.F.W.[Sar]}$$$$V2.0)	1.02	< 7.5 µM
CCCCCCCCC(=O)N[C@@H](Cc1c[nH]c2ccccc12)C(=O)N(C)[C@@H](C)C(=O)N[C@@H](CCC(N)=O)C(=O)N[C@H]1CCCCNC(=O)C[C@@H](C(=O)N[C@@H](Cc2c[nH]cn2)C(=O)N[C@H](C(=O)N[C@@H](CCC(N)=O)C(=O)N[C@@H](CCCNC(=N)N)C(=O)N[C@H](C(=O)N[C@@H](Cc2c[nH]c3ccccc23)C(=O)NCC(N)=O)C(C)C)C2CCCCC2)NC(=O)[C@H](CC(=O)O)NC(=O)[C@H](CC(C)C)NC(=O)[C@H]([C@@H](C)CC)NC1=O [compound 431] (HELM PEPTIDE1{[CCCCCCCCC(=O)[*:2]].W.[meA].Q.K.I.L.D.D.H.[O=C([C@@H](N[*:1])C1CCCCC1)[*:2]].Q.R.V.W.G.[am]}$PEPTIDE1,PEPTIDE1,5:R3-9:R3$$$V2.0)	0.7	< 7.5 µM
CCCCCCCCCCCC(=O)N[C@@H](Cc1c[nH]c2ccccc12)C(=O)N(C)[C@@H](C)C(=O)N[C@@H](CCC(N)=O)C(=O)N[C@H]1CCCCNC(=O)CC[C@@H](C(=O)N[C@@H](Cc2c[nH]cn2)C(=O)N[C@H](C(=O)N[C@@H](CCC(N)=O)C(=O)N[C@@H](CCCNC(=N)N)C(=O)N[C@H](C(=O)N[C@@H](Cc2c[nH]c3ccccc23)C(=O)NCC(N)=O)C(C)C)C2CCCCC2)NC(=O)[C@H](CC(N)=O)NC(=O)[C@H](CC(C)C)NC(=O)[C@H]([C@@H](C)CC)NC1=O [compound 436] (HELM PEPTIDE1{[CCCCCCCCCCCC(=O)[*:2]].W.[meA].Q.K.I.L.N.E.H.[O=C([C@@H](N[*:1])C1CCCCC1)[*:2]].Q.R.V.W.G.[am]}$PEPTIDE1,PEPTIDE1,5:R3-9:R3$$$V2.0)	–	< 7.5 µM
CCCCCCCCC(=O)N[C@@H](Cc1c[nH]c2ccccc12)C(=O)N(C)[C@@H](C)C(=O)N[C@@H](CCC(N)=O)C(=O)N[C@@H](CO)C(=O)N[C@H](C(=O)N[C@@H](CC(C)C)C(=O)N[C@@H](CC(=O)O)C(=O)N[C@H]1CCC(=O)NCCCC[C@@H](C(=O)N[C@H](C(=O)N[C@@H](Cc2c[nH]c3ccccc23)C(=O)NCC(N)=O)C(C)C)NC(=O)[C@H](CCC(N)=O)NC(=O)[C@H](C(C)C)NC(=O)[C@H](Cc2c[nH]cn2)NC1=O)[C@@H](C)CC [compound 438] (HELM PEPTIDE1{[CCCCCCCCC(=O)[*:2]].W.[meA].Q.S.I.L.D.E.H.V.Q.K.V.W.G.[am]}$PEPTIDE1,PEPTIDE1,9:R3-13:R3$$$V2.0)	0.72	< 7.5 µM
CCCCCCCCCCCCCCCCCC(=O)N[C@@H](Cc1c[nH]c2ccccc12)C(=O)N(C)[C@@H](Cc1c[nH]c2ccccc12)C(=O)N[C@@H](CCC(=O)O)C(=O)NC(C)(CO)C(=O)N[C@H](C(=O)N[C@@H](CC(C)C)C(=O)N[C@@H](CC(=O)O)C(=O)N[C@@H](CCC(=O)O)C(=O)N[C@@H](Cc1c[nH]cn1)C(=O)NC(C)(C(=O)N[C@@H](CCC(N)=O)C(=O)N[C@@H](CCCNC(=N)N)C(=O)N[C@H](C(=O)N[C@@H](Cc1c[nH]c2ccccc12)C(=O)O)C(C)C)C(C)C)[C@@H](C)CC (single isomer, unassigned) [393/500]	–	< 7.5 µM
CCCCCCCCCCCC(=O)N(C)[C@@H](C)C(=O)N[C@@H](CCC(N)=O)C(=O)N[C@H]1CCCCNC(=O)CC[C@@H](C(=O)N[C@@H](Cc2c[nH]cn2)C(=O)N[C@H](C(=O)N[C@@H](CCC(N)=O)C(=O)N[C@@H](CCCNC(=N)N)C(=O)N[C@H](C(=O)N[C@@H](Cc2c[nH]c3ccccc23)C(=O)NCC(N)=O)C(C)C)C2CCCCC2)NC(=O)[C@H](CC(N)=O)NC(=O)[C@H](CC(C)C)NC(=O)[C@H]([C@@H](C)CC)NC1=O [compound 434] (HELM PEPTIDE1{[CCCCCCCCCCCC(=O)[*:2]].[meA].Q.K.I.L.N.E.H.[O=C([C@@H](N[*:1])C1CCCCC1)[*:2]].Q.R.V.W.G.[am]}$PEPTIDE1,PEPTIDE1,4:R3-8:R3$$$V2.0)	0.93	–
